Measurements: PubChem BioAssay AID1508600 (Functional Genomics Laboratory (NCATS/FGL), 2020)
Hit rate of the full screen: of about 53,000 sequences, about 3,700 (7%) were called active.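 How the source made its calls: active means gene knockdowns whose robust z-score for IL-1 alpha signal is at least 2 or at most -2, so actives lie on both sides; inactive means the rest.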 The list shows a part of the results.

Test: Components of the Cytosolic LPS Sensing Pathway: Gene Identification via Genome-wide siRNA Screen;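 further: robust z of the log signal after scaling to non-targeting control siRNA wells of the plate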
Conditions: RAW264.7 macrophages, IL-1a HTRF, actives lie on both sides, screened at 100 nM (by protocol), cells primed 5 h with Pam3CSK4 first
Procedure, shortened: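 Knockdown: 100 nM siRNA, 48h, RAW264.7. Stimulation: Pam3CSK4 5 h, then LipidA via TransIT-TKO 24 h. Output: supernatant IL-1a HTRF, negative-control-normalized, log robust z-score; viability by CellTiter-Glo.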

z-score, inactive:
GGAGAAGAGAAAGAUUCUUTT against Dhx9 0.724
GCAUUCAUACAUGUAACAGTT against Wdr70 0.336
GUAGAGUGAUGAGAGGCCUTT against Vmn1r-ps8 -0.475
CCUUAAGCAGAGUUCAAAGTT against Timm22 0.197
GGAGAUGAAGUCAUUGAAUTT against Casq1 -0.561
GGGCUACAGCCUUGAAAACTT against Lyzl4 -0.0362
UCCAUCGACUGGGACUCUCTT against Nxpe5 0.463
CUAUGUGGUCACAAUAGAGTT against Olfr1360 0.411
GGAAAGGGAGAUUUGUAAGTT against Hoxc4 0.837
GCUGUUCUGCAAAACUGGATT against Rbpms -1.36
GGUAUGUUUACCAUAGCUCTT against Tbx18 0.503
CGAGACAAAGAAAGCAAGUTT against Trappc8 -0.937
GGAUCUGGACUUAAUGCUCTT against Tfeb -0.383
GGAUGUUACUCCCUCAAAUTT against Tmbim7 1.01
GCCACUACAUAUAAACAUCTT against Spag1 -0.0903
GCAUUAUUCUGAGGACACATT against Fhod3 0.569
GGCAUACCGGAAACUUGCCTT against Dnajb13 -0.266
CCACCUUUCUCACAGAUAATT against Myo3b 1.43
GCAAGAUACCAAAUGCAUATT against Zfp316 0.198
GGAAGAAAAGACUUAUCGUTT against Jkamp -0.663
GGGAGAAGCAGAAAGAACUTT against Rundc1 -0.342
CGGGAAGCUAUCAUCAAAATT against Rgs13 0.12
CGAAAUUUACAGGAGAUCCTT against Nup93 0.0497
GGAAUACUGCUACAAAUGATT against Vav1 -0.95
GGUGGCUUCAGUAAGUUCCTT against Dusp6 0.766
GCAUCCACUAUGGAGAAACTT against Ect2 -1.25
GGUUGUAAAGGAAGAGAAGTT against Lyve1 0.397
GGAAUCAUAUCAGAAACUATT against Pde4b -0.475
CCCACUUCUCAGAUGAAAUTT against Tut4 -1.33
GCCAGUCCAAAGCUUCAAATT against Eif3b 0.378
GGCCAUCUUUGUUUAAAACTT against Ttc5 -0.0587
GGACGUGUGCCAGACUAAATT against Egfl6 1.41
GGUCUCAUAUCCUCUUUGGTT against Pex11a -1.87
GGAACAGGUACUAGAAGUATT against Armh3 1.69
GCCUUGGAUGAAAAGGUAATT against Ppfia2 -1.46
GGUGGUAUCGGUUUUCUACTT against Olfr1509 0.996
GGCCGGCCAGAUAAAGAAATT against Cavin1 0.683
GGCAAGAAUCAAGGAGAGATT against Nek1 -1.27
GGGAUCCAUCCUCAUCUCATT against Oas1h 1.68
CCCAGUAUGGUCCAUGAAGTT against Zfp821 -1.61
GGUCAGAUGUGGAGAAAGGTT against Ufd1 -0.628
GGCGAGCAUCGCUAUUGACTT against Zcrb1 0.734
GCCUAGGGAGGUGUAGAAUTT against Marveld1 0.486
GCUCCUAAAAGAACAGUCGTT against Cog3 -0.275
GAAUUUUUCAGCUCUGUUUTT against Tas2r117 -1.04
GGAUUUCUACCAGCUCGUGTT against Pop5 1.62
GGUUCAUGGAGAAGAAUCUTT against Ankzf1 0.153
GGAUCUUUUCGUGUCCUGCTT against Pik3ap1 -0.78
CCCAUGGGAAGUUCAUCUCTT against Olfr123 0.275
CGGUACCUUGUACAUGGUUTT against Ptprn2 -0.0955
GGAACAUCUGCAUCUGGAUTT against Adi1 -0.36
GGUCAAUGCUGUUAAGAAATT against Sart1 -1.84
CCCAUACUAUGCCAGGACATT against Foxi2 1.43
GGAUGAAAACACUGAAUACTT against Olfr644 -0.714
GCCACCUCCUACCAAAUGUTT against Sprr4 -1
UUGGAGAGAAGCCUAUAACTT against 4930451I11Rik 0.231
CCAUGGUAGUUAAAAAUGUTT against Rbm25 -0.461
GGAGAAAGAUGAAGUCUUUTT against Sav1 -1.62
GGUUAUAAAACUAUGGAACTT against Map2k5 0.133
GGAGAUGCAUACCAAAGAUTT against Cdrt4 0.582
GGAUGACGGUGUCAUGUGCTT against Nlrc3 -0.3
GCCAACCAGCAUUUUUGACTT against Lypd6b 0.0427
CGAUUUUUUUGCCCUCCUCTT against Rbpj 0.487
GAGUUGUCCUCUUCACCAUTT against Olfr483 -1.52
GGUGAAUUGAAGCAGUCCUTT against Ptgdr2 0.282
GGUUGAGUGGCAUUUUUUATT against Ice1 -0.822
GCGUGAGGAUGUAGACUACTT against Mmp12 0.699
GGGUGUAAGACUGUGUUUGTT against Enox1 0.95
GGAGAAAUCAAACACAAGUTT against Slco5a1 1.4
GCUAUGGGACUUAGGAAGGTT against Paqr6 0.74
GGCACUUUGUUUAGGCAAATT against Tcstv1 -1.51
AAACCUGUCGUAAAAGCUGTT against Mt4 1.64
GCUGUACACAAGUUGACCCTT against Fndc3a 0.526
GGUCCUGACACAUUCUUACTT against Olfr571 -0.0548
GGAAAGGUAUGAGUGAAGATT against Ifi205 -0.538
GCAUGGUUUAAUGGCUCGGTT against Atpsckmt -1.93
GGAAAGGAACUAGCAACGATT against Art3 -0.642
CCCACUCUGUUCAGAGAGUTT against Bud23 -0.645
GCAUACUUGUUUUAGCUAATT against Ier3ip1 -1.02
GCAGCUAGCAACAUAGUAUTT against Bud23 1.48
GGGACACAAAGACACCGUGTT against Ift122 1.04
GGCAUUUUGAAAACAAGGUTT against Cox7a2 -0.473
GGCCUUGUUUUCAUGCCUGTT against Acsm2 -0.179
CGAUCUACAUCGAAUAAAUTT against Sap130 1.5
GGAGGAAGAUGAGUUCUACTT against Vps72 0.757
GGUAUUUGAUGGUCACAAATT against Rtn3 -0.515
CCGAAUUCCAACCUAGAGCTT against Yipf5 -1.38
GGAGCUUGAAGGAUGAGGATT against Plaur -1.41
GCUGCACACUGGAAUCACATT against Lonrf2 -1.99
GGUGAUGGAAGUUAGUGUGTT against Bet1 -1.34
GCACAGUUAGCAUUGCUCCTT against Hoxc10 -1.48
CCAUAGAGUGGAUAGUCAUTT against Rsl1 0.385
CGAUCACCUUAGUAAAUACTT against Ykt6 0.233
GGAAGUGUCCUUCUACCAGTT against Hoxd13 -0.00821
GGAAGCUCAGCUCCUAUCUTT against Nek4 -1.42
GCAAGAAACCAACCAAUCCTT against Septin6 -0.74

Random excerpt: 5 entries already listed.
z-score, inactive:
GGGUGUAAGACUGUGUUUGTT against Enox1 0.95
GGAAGCUCAGCUCCUAUCUTT against Nek4 -1.42
GGCAAGAAUCAAGGAGAGATT against Nek1 -1.27
GGUCAGAUGUGGAGAAAGGTT against Ufd1 -0.628
GGACGUGUGCCAGACUAAATT against Egfl6 1.41

No new results follow: entries from further up.
z-score, inactive:
GGUCUCAUAUCCUCUUUGGTT against Pex11a -1.87
GGAACAGGUACUAGAAGUATT against Armh3 1.69

Following part:

z-score, active:
CGGGUAAUAAGGAUUUGGGTT against Cadm4 2.05
GGAUCGAGACAAGGCCAAATT against Fes 3.22
CCAAUGAUUUCCUGCUAAATT against Lst1 3.21
GGAUUAUGAUCCAGAAUUCTT against Omd 2.96
GGUCACAAAGAAGAAUCACTT against Heg1 -2.31
GGUGCUGCUAGUGAACAAGTT against E2f4 5.64
GCAGAGCAUGCCUUACUGUTT against Eif4ebp1 4.39
CGGUACAAAUGAUUUCUGATT against Pcolce2 2.04
GCCCAGAGUUACGAGUAUGTT against Aacs 2.23
GGAGAAAGUGUCCUCUGUGTT against Olfr924 -2.41
GCCACGAUAAUUCAGGAGUTT against Aurkc 2.27
CGCGAGCUCAGAAUACAUGTT against Btn1a1 2.5
